These are yes or no findings as the source states them, for the method shown. Some binding calls cover weakened binding; strength is not graded here. For some of these results: Where a sequence is shown, tags or fusion partners need not be part of it. Blank lines part the entries; values can stand above or below the binder they belong to.
Tests used:
[1] = target: T1, human GPIHBP1-LPL complex (human) (UniProt P06858+Q8IV16); test: HDX-MS; ANGPTL3/8 complex (12 uM) bound by GPIHBP1-LPL (18 uM) or ApoA5 (18 uM) against unbound complex; pH 7.4, 10 mM sodium phosphate, 150 mM NaCl, 15 C; 10 s, 2 min, 10 min, 60 min; nepenthesin II digestion; triplicate; both purified
T1 sequence 1: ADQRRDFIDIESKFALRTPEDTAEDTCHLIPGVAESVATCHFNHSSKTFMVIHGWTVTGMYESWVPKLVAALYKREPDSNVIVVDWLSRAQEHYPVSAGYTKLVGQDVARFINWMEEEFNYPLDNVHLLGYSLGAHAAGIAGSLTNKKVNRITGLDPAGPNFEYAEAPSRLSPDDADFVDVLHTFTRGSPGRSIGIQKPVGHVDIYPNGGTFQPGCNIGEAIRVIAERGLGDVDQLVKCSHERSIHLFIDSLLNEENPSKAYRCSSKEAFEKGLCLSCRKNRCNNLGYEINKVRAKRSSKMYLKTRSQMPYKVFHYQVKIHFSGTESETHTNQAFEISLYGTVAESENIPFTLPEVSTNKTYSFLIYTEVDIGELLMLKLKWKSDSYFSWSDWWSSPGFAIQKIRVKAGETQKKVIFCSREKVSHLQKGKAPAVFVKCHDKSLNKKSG
T1 sequence 2: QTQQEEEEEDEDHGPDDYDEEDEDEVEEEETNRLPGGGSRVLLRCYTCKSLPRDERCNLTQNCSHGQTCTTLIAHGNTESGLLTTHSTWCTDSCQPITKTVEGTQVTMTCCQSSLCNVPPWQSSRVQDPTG

[2] = target: T2, avidin-tagged LPL copurified with GPIHBP1 (human) (UniProt P06858+Q8IV16); test: BLI; Octet RED96e; avidin-tagged LPL copurified with GPIHBP1 immobilised on streptavidin biosensors; ANGPTL3/8 preincubated 30 min at room temperature with no antibody, an irrelevant isotype-matched control antibody or the anti-ANGPTL3/8 antibody (10:1 antibody:ANGPTL3/8); dissociation in buffer-only wells; both purified
T2 sequence 1: T1 sequence 1
T2 sequence 2: T1 sequence 2

[3] = target: T3, human ANGPTL3/8 complex (human) (UniProt Q9Y5C1+Q6UXH0); test: HDX-MS; ANGPTL3/8 complex (12 uM) bound by GPIHBP1-LPL (18 uM) or ApoA5 (18 uM) against unbound complex; pH 7.4, 10 mM sodium phosphate, 150 mM NaCl, 15 C; 10 s, 2 min, 10 min, 60 min; nepenthesin II digestion; triplicate; both purified
T3 sequence 1: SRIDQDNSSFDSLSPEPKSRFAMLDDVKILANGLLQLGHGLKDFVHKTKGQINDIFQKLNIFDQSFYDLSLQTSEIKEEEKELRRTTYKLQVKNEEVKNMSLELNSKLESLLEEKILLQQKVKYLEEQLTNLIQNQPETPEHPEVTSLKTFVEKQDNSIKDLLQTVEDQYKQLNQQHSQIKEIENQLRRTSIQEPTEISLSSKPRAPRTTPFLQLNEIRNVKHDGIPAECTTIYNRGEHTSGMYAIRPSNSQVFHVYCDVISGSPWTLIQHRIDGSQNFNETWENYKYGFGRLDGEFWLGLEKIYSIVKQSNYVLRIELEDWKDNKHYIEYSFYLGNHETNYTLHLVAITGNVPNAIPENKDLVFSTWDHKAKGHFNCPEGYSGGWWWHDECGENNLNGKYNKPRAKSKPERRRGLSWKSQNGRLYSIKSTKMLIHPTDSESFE
T3 sequence 2: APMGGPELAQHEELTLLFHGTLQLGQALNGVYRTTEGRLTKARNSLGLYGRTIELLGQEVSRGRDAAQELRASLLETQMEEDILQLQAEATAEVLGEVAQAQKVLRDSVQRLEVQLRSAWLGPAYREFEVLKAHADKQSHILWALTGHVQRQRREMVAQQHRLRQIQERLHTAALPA

[4] = target: T4, HIS tag-mature human LPL (residues 28-475) (human) (UniProt P06858); test: co-purification (Ni-NTA affinity, size-exclusion chromatography); HIS-tagged LPL and GPIHBP1(1-151 R58G) cotransfected in HEK293 cells; complex purified from culture media harvested 5 days posttransfection
T4 sequence: T1 sequence 1

binding [1]: binds
binding [2]: binds
B1: human ANGPTL3/8 complex (complex, UniProt Q9Y5C1 17-460; Q6UXH0 22-198)
chain 1: T3 sequence 1
chain 2: T3 sequence 2

binding [3]: binds
B2: human ApoA5 (HSA-tagged) (protein, UniProt Q6Q788 24-366)
chain: RKGFWDYFSQTSGDKGRVEQIHQQKMAREPATLKDSLEQDLNNMNKFLEKLRPLSGSEAPRLPQDPVGMRRQLQEELEEVKARLQPYMAEAHELVGWNLEGLRQQLKPYTMDLMEQVALRVQELQEQLRVVGEDTKAQLLGGVDEAWALLQGLQSRVVHHTGRFKELFHPYAESLVSGIGRHVQELHRSVAPHAPASPARLSRCVQVLSRKLTLKAKALHARIQQNLDQLREELSRAFAGTGTEEGAGPDPQMLSEEVRQRLQAFRQDTYLQIAAFTRAIDQETEEVQQQLAPPPPGHSAFAPEFQQTDSGKVLSKLQARLDDLWEDITHSLHDQGHSHLGDP

binding [4]: binds
B3: GPIHBP1(1-151 R58G) (domain or fragment, UniProt Q8IV16 21-151)
chain: T1 sequence 2

From PMC9036128, “An anti-ANGPTL3/8 antibody decreases circulating triglycerides by binding to a LPL-inhibitory leucine zipper-like motif” (Journal of Lipid Research, 2022)
